In PubChem BioAssay AID1347075 (National Center for Advancing Translational Sciences (NCATS), 2019):
The whole screen tested about 400,000 compounds, of which about 5,500 (1.4%) were called active. The shares of active, inactive and inconclusive entries below differ from those in the screen. The call rests on the fitted dose curve; in most records, active means well fitted cell-killing curve with a large enough effect; inconclusive means small, poorly fitted or top-dose-only effect, or effect the other way; inactive means flat fitted curve, though single readings scatter. Where the call is inconclusive, the potency comes from a doubtful curve fit.

Test: qHTS assay for MDR1-selective chemotherapeutics: Primary screen using the parental adenocarcinoma cell KB-3-1; further: nearly all actives have a fitted effect of over 60% in size
Conditions: KB-3-1 viability, CellTiter-Glo ATP luminescence, 72 h; activity change, negative = cytotoxic: at 46.1 µM (top of the series)
How it was run: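 Screening of KB-3-1 cells (DMEM, 10% FBS, phenol-red free) ran from lowest to highest compound concentration; after 72 h at 37 °C viability was read luminescently and curves fitted.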
On the % scale 0 is the no-effect control and ±100 the full control effect; potency means the concentration at half of the fitted maximal effect.

Compound | Potency | activity change, negative = cytotoxic
O=C(NCCc1ccc(O)c(Br)c1)c1ccc(Br)o1 | inactive | 
Cc1cc(O)c(C(C)C)cc1C1(c2cc(C(C)C)c(O)cc2C)OC(=O)c2ccccc21 | inconclusive: 29.1 µM [cytotoxic, single point] | 
O=C1C=C(Nc2ccccc2)C(=O)c2ccccc21 | inconclusive: 18.4 µM [cytotoxic, single point] | 
C[C@@H]1CN([C@H](C)CO)C(=O)c2cc(C#CC3CCCCC3)cnc2O[C@H]1CN(C)Cc1cccnc1 | inconclusive: 18.4 µM [cytotoxic, single point] | 
CC1=Cc2ccccc2C(C#N)N1C(=O)c1ccccc1 (centres undefined) | inconclusive: 23.1 µM [cytotoxic, partial curve, poor fit] | 
COc1ccc(NC(=O)C2CCCN2S(=O)(=O)c2ccc3nc(-c4ccccc4)[nH]c3c2)cc1 (centres undefined) | inconclusive: 8.2 µM [cytotoxic, partial curve] | 
COc1cnc(-c2ccccc2)nc1Oc1ccc(C(C)(C)C)cc1 | inactive | 
COc1cccc(CN(C)CC(=O)Nc2cc(S(=O)(=O)N3CCCC3)ccc2Cl)c1OC | inconclusive: 29.1 µM [cytotoxic, single point] | 
Cc1cccc(-c2nc(SCC(=O)Nc3ccc4c(c3)OCO4)c(-c3ccccc3)[nH]2)c1 | inconclusive: 29.1 µM [cytotoxic, single point] | 
O=C(CCn1c(=O)c2cccn2c2cccnc21)N1CCN(c2cccc(Cl)c2)CC1 | inconclusive: 29.1 µM [cytotoxic, single point] | 
Cc1cc([N+](=O)[O-])nn1Cc1noc(C(=O)NCc2ccc3c(c2)OCO3)n1 | inconclusive: 0.0052 µM [cytotoxic, full curve] | 
Cc1ccc(Cl)cc1N1CCN(C(=O)Cc2c(C(=O)O)[nH]c3ccc(Cl)cc23)CC1 | inconclusive: 16.4 µM [cytotoxic, single point] | 
COc1ccc2nc(NC(=S)N(C)C)sc2c1 | active: 20.6 µM | 
Cc1c(N2C(=O)/C(=C\c3ccccc3O)SC2=S)c(=O)n(-c2ccccc2)n1C | inactive | 
Nc1nc2ccccc2n1S(=O)(=O)c1ccc([N+](=O)[O-])cc1 | inconclusive: 29.1 µM [cytotoxic, single point] | 
COc1ccc2c(c1OC)C(=O)N1c3ccccc3C(=O)N(c3ccccc3F)C21 (centres undefined) | inactive | 
O=S(=O)(c1ccc2nc(COc3ccc(Cl)cc3Cl)[nH]c2c1)N1CCOCC1 | inactive | 
COc1ccc(NC(C)=O)cc1S(=O)(=O)NC(Cc1ccccc1)C(=O)O (centres undefined) | inactive | 
O=C1C(C2=C(O)c3ccccc3C2=O)=Nc2ccccc21 | inconclusive: 23.1 µM [cytotoxic, single point] | 
CCCCCN1C(C(=O)c2ccccc2)=C(NC(=O)c2ccccc2Cl)c2ccccc2S1(=O)=O | inconclusive: 29.1 µM [cytotoxic, single point] | 
O=[N+]([O-])c1cc(S(=O)(=O)C(F)(F)F)ccc1Sc1nc2ccccc2s1 | active: 3.26 µM | 
FC(F)(F)c1nc2ccccc2n2c(-c3ccc(Cl)cc3)nnc12 | active: 4.61 µM | 

Entries above containing an aryl methoxy group, in the order listed:
Compound | Potency | activity change, negative = cytotoxic
COc1ccc(NC(=O)C2CCCN2S(=O)(=O)c2ccc3nc(-c4ccccc4)[nH]c3c2)cc1 (centres undefined) | inconclusive: 8.2 µM [cytotoxic, partial curve] | 
COc1cnc(-c2ccccc2)nc1Oc1ccc(C(C)(C)C)cc1 | inactive | 
COc1cccc(CN(C)CC(=O)Nc2cc(S(=O)(=O)N3CCCC3)ccc2Cl)c1OC | inconclusive: 29.1 µM [cytotoxic, single point] | 
COc1ccc2nc(NC(=S)N(C)C)sc2c1 | active: 20.6 µM | 
COc1ccc2c(c1OC)C(=O)N1c3ccccc3C(=O)N(c3ccccc3F)C21 (centres undefined) | inactive | 
COc1ccc(NC(C)=O)cc1S(=O)(=O)NC(Cc1ccccc1)C(=O)O (centres undefined) | inactive | 

(listing goes on)

Compound | Potency | activity change, negative = cytotoxic
Cc1nn2c3ccccc3nc2c2ccccc12 | inconclusive: 23.1 µM [cytotoxic, single point] | 
O=C(Nc1cccc(S(=O)(=O)N2CCCCC2)c1)c1ccc(Cl)nc1 | inconclusive: 18.4 µM [cytotoxic, single point] | 
CCOc1ccc(NC(=O)CC(C)S(=O)(=O)c2ccc3c(c2)NC(=O)CO3)cc1 (centres undefined) | inactive | 
O=C(CCCc1ccccc1)Nc1ccnn1C1CCN(Cc2ccc(Cl)cc2)CC1 | inactive | 
Cc1nn(-c2ccccc2)c(Cl)c1/C=C(\CC(=O)O)c1nc2ccccc2s1 | inactive | 
NC(=S)N/N=C/c1ccc(C(F)(F)F)cc1 | active: 23.1 µM | 
OCC[C@@H]1C[C@H](O)[C@@H](O)[C@@]2(OCc3cc(C(F)(F)F)ccc32)O1 | inconclusive: 32.6 µM [rising, partial curve, poor fit] | 
CCOc1ccc(C(C)=O)cc1CN1C(=O)NC2(CCCCCC2)C1=O |  | inconclusive: -22.5%
NS(=O)(=O)c1ccc(CCNCc2ccccc2OCc2ccc(Cl)cc2)cc1 | inconclusive: 18.4 µM [cytotoxic, single point] | 
CCC1=NN2C(=N)/C(=C\c3ccc(OCc4cc(=O)n5nc(CC)sc5n4)c(OC)c3)C(=O)N=C2S1 | inconclusive: 0.164 µM [rising, partial curve, poor fit] | 
CCN(C[C@H]1N[C@@](CC)(C(=O)OC)[C@H]2C(=O)N(Cc3ccccc3)C(=O)[C@@H]12)C(=O)COC |  | inconclusive: 25.4%
COc1cccc(NC(=O)COC(=O)C2CCCCC2)c1 | inconclusive: 0.103 µM [rising, full curve] | 
CN1/C(=C\C(=O)COC(=O)c2ccc(O)c(O)c2)C(C)(C)c2ccccc21 | inconclusive: 32.6 µM [cytotoxic, single point] | 
O=c1cc(Nc2ccc3c(c2)OCO3)[nH]c(=O)n1-c1ccc(Br)cc1 | inactive | 
c1ccc2c(c1)nnn2-c1ncnc2sc3c(c12)CCCC3 | inactive | 
COc1cc(C2Nc3cccc4cccc(c34)N2)cc(OC)c1OC(C)=O | inconclusive: 1.84 µM [cytotoxic, partial curve, poor fit] | 
Cc1nc(CNC(=O)CC2C(=O)NCCN2Cc2ccc(F)cc2)cs1 (centres undefined) | inactive | 
O=C(CC(c1ccccc1)c1cc(Br)ccc1O)NCC1(c2ccccc2)CCCC1 (centres undefined) | inconclusive: 29.1 µM [cytotoxic, single point] | 
COc1ccc(/C=N/NC(=O)c2ccc3nc[nH]c3c2)cc1 | inconclusive: 25.9 µM [cytotoxic, single point] | 
Cc1ccc(OCc2nnc(SCC(=O)C(C)(C)C)n2Cc2ccco2)cc1 |  | inconclusive: -25.4%
COc1ccccc1N(Cc1cc2cccc(C)c2[nH]c1=O)C(=O)c1cccc(Cl)c1 | inconclusive: 16.4 µM [cytotoxic, partial curve, poor fit] | 
Cc1ccc(NP(=O)(Nc2ccc(C)cc2)Nc2ccc(C)cc2)cc1 | active: 20.6 µM | 
